# Data published in PubChem BioAssay AID624291 (National Center for Advancing Translational Sciences (NCATS), 2012).
# Screen size: about 350,000 compounds; about 220 (0.063%) were called active. Inconclusive results, whose numbers are uncertain, are shown with a selection of clear calls. Calls come from the whole dose curve; as a rule, active = well fitted activation curve with a large enough effect; inconclusive = small, poorly fitted or top-dose-only effect; inactive = no such curve, though single readings can be large or run the other way. Where the call is inconclusive, the potency comes from a doubtful curve fit.
# Assay: qHTS for Activators of Integrin-Mediated Alleviation for Muscular Dystrophy; note: nearly all actives have a fitted effect of over 60% in size
# Settings: alpha7betagal myoblasts, beta-gal FDG fluorescence, 48 h; series mostly up to 38.3 µM
# Outline: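 Alpha7betagal+/- myoblasts (passage 13) were plated 16-24 hr, then exposed to compounds (1:260 dilution of DMSO stock) for 48 hours at 37C. After MPER lysis, β-galactosidase reporter activity was read as FDG fluorescence (ex 480/em 540) after 30 minutes.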
# Potency is the fitted concentration of half-maximal effect.
row,SMILES,Potency
1,COc1ccc(-n2c(=O)[nH]c3cc(C(=O)NCCc4ccccc4)ccc3c2=O)cc1OC,"inconclusive: 5.01 µM [activator, single point]"
2,COCCOc1ccc(C(F)(F)F)cc1NC(=O)c1ccccc1F,inactive
3,O=C(Nc1ccccc1)C(Cc1cccs1)c1nn[nH]n1 (stereo unspecified),"inconclusive: 20 µM [activator, single point]"
4,COC(=O)[C@@H](NC(=O)Nc1cccc(Br)c1)C(C)C,"inconclusive: 1.26 µM [activator, partial curve, poor fit]"
5,Clc1ccccc1Nc1nnc(-c2ccncc2)s1,inactive
6,C=CCN1C(=O)N/C(=C/c2ccc(C)o2)C1=O,"inconclusive: 8.91 µM [activator, partial curve, poor fit]"
7,CCOC(=O)c1cccc(NC(=O)c2cc(C)nn2-c2ccccc2)c1,inactive
8,COC(=O)Nc1ccc(S(=O)(=O)N2CCC(C(=O)N3CCCCC3C)CC2)cc1 (stereo unspecified),"inconclusive: 28.2 µM [activator, single point]"
9,O=C(c1ccc(F)cc1)c1ccc(OCC(=O)N2CCOCC2)cc1,"inconclusive: 2.51 µM [activator, single point]"
10,C/C(=C\C(=S)Nc1ccccc1)Nc1ccc2ccccc2c1,inactive
11,Cc1cccc(NC(=O)CSCC(=O)Nc2ccc(N3CCOCC3)cc2N2CCOCC2)c1,"inconclusive: 10 µM [activator, partial curve, poor fit]"
12,Cc1ccnc(SC2CC(=O)N(c3ccc(C(C)C)cc3)C2=O)n1 (stereo unspecified),inactive
13,CCN(CC)CCCN=Cc1c(O)n(Cc2ccccc2)c(=O)c2ccccc12,inactive
14,COc1ccc(Cl)cc1C(=O)Nc1cccc(-c2ccc3nncn3n2)c1,"inconclusive: 1.58 µM [activator, partial curve, poor fit]"
15,Cc1nn(C(=O)CNS(=O)(=O)c2ccccc2)c(C)c1Sc1ccc(Cl)cc1,inactive
16,CCCn1nc(NS(=O)(=O)c2cccc3nonc23)c2cc3cc(C)ccc3nc21,inactive
17,O=C(Nc1nncs1)C1c2ccccc2Oc2ccccc21,"inconclusive: 11.2 µM [activator, single point]"
18,OCC[C@@H]1C[C@H](O)[C@@H](O)[C@@]2(Cc3ccccc3CCO2)O1,inactive
19,COc1ccc(CCNC(=O)/C=C/c2ccc(S(=O)(=O)N3CCOCC3)cc2)cc1,inactive
20,CCCn1ncc(CN2CCN(CCc3ccccc3)C(CCO)C2)c1C (stereo unspecified),"inconclusive: 5.01 µM [activator, single point]"
21,CCN(CC(=O)NC(=O)NC1CCCCC1)Cc1nc2ccccc2c(=O)[nH]1,inactive
22,CC(=O)N1c2ccc(S(=O)(=O)N(C)CC(=O)N(C)Cc3ccccc3)cc2CC1C (stereo unspecified),"inconclusive: 22.4 µM [activator, partial curve, poor fit]"
23,O=C(COc1cccc2ccccc12)NNC(=O)CSCCO,inactive
24,COc1cccc(CNC(=O)C(=O)N2CCC3(CC2)OCCN3S(=O)(=O)c2ccc(C)cc2)c1,inactive

# Reprinted at random: 3 entries already listed
row,SMILES,Potency
8,COC(=O)Nc1ccc(S(=O)(=O)N2CCC(C(=O)N3CCCCC3C)CC2)cc1 (stereo unspecified),"inconclusive: 28.2 µM [activator, single point]"
21,CCN(CC(=O)NC(=O)NC1CCCCC1)Cc1nc2ccccc2c(=O)[nH]1,inactive
20,CCCn1ncc(CN2CCN(CCc3ccccc3)C(CCO)C2)c1C (stereo unspecified),"inconclusive: 5.01 µM [activator, single point]"

# Next part

row,SMILES,Potency
1,COc1ccc(-c2cc(=O)oc3cc(OCC(=O)N(C)C)ccc23)cc1,"inconclusive: 5.01 µM [activator, single point]"
2,O=C(/C=C/c1ccc2c(c1)OCO2)NCc1ccc(F)cc1,"inconclusive: 14.1 µM [activator, single point]"
3,CN1c2ccsc2/C(=N/Nc2ccccc2)CS1(=O)=O,inactive
4,O=C(Nc1ccncc1)Nc1cccc(Cl)c1,"inconclusive: 12.6 µM [activator, single point]"
5,Cc1nn(CC(=O)Nc2ccc(Cl)cn2)c(C)c1[N+](=O)[O-],"inconclusive: 31.6 µM [activator, single point]"
6,COC(=O)C1C2CC(=O)C(C2)C1C(=O)OC (stereo unspecified),"inconclusive: 0.447 µM [activator, full curve, poor fit]"
7,COc1cc(C=O)ccc1OC(=O)c1ccncc1,"inconclusive: 11.2 µM [activator, single point]"
8,Cc1cc(C)c(NC(=O)CSc2nnc(CNC(=O)c3ccco3)o2)c(C)c1,"inconclusive: 3.55 µM [activator, single point]"
9,O=C(CN1CCN(c2cccc(C(F)(F)F)c2)CC1)N(C1CC1)C1CCS(=O)(=O)C1 (stereo unspecified),"inconclusive: 11.2 µM [activator, partial curve, poor fit]"
10,O=C(CN1C(=O)CCC1=O)Nc1ccc(S(=O)(=O)N2CCOCC2)cc1,"inconclusive: 5.01 µM [activator, single point]"
11,CC(NCC(O)COCc1ccc(Cl)cc1)c1ccccc1 (stereo unspecified),inactive
12,O=C1c2c([N+](=O)[O-])cc([N+](=O)[O-])cc2S(=O)N1Cc1ccccc1 (stereo unspecified),"inconclusive: 28.2 µM [activator, single point]"
13,O=C(Nc1ccc2c(c1)C(=O)c1ccccc1-2)c1ccccc1,inactive
14,O=C(NCc1ccccn1)c1ccc(NS(=O)(=O)c2ccccc2)cc1,"inconclusive: 15.8 µM [activator, single point]"
15,COc1ccccc1N1CCN(C(=O)C(=O)c2c(C)[nH]c3ccccc23)CC1,"inconclusive: 3.98 µM [activator, single point]"
16,O=C(CCNC(=O)c1ccccc1)NNC(=O)c1ccc(F)cc1,"inconclusive: 14.1 µM [activator, single point]"
17,COc1ccccc1N(C)S(=O)(=O)c1ccc(C(=O)NCc2ccc3c(c2)OCO3)cc1,"inconclusive: 10 µM [activator, partial curve, poor fit]"
18,CCCN1CNC(=S)N(c2ccccc2OC)C1,inactive
19,Cc1ccc(C)c(Oc2ncnc(N)c2[N+](=O)[O-])c1,inactive
20,CC(C)CCN(C(=O)c1csnn1)C(C(=O)NC1CCCC1)c1ccccc1 (stereo unspecified),"inconclusive: 22.4 µM [activator, single point]"
21,Cc1sc2nc(SCCO)n(-c3ccccc3)c(=O)c2c1C,"inconclusive: 5.01 µM [activator, single point]"
22,CCSc1nnc(C)c2ccccc12,inactive
23,O=C(N/N=C/c1c(F)cccc1Cl)C1CC1,"inconclusive: 28.2 µM [activator, single point]"
24,CC1CCCC(NC(=O)Cn2cc(Br)ccc2=O)C1C (stereo unspecified),inactive

row,SMILES,Potency
1,N/C(=N\OC(=O)N1c2ccccc2Sc2ccccc21)c1ccccc1,"inconclusive: 28.2 µM [activator, single point]"
2,COc1ccccc1Nc1n[nH]c(=S)s1,inactive
3,CCCOc1ccc(/C=N\NC(=O)CCc2n[nH]c(=O)[nH]c2=O)cc1OC,"inconclusive: 1.26 µM [activator, partial curve, poor fit]"
4,CN(C)S(=O)(=O)c1ccc(Cl)c(NC(=O)COC(=O)/C=C/c2ccc3ccccc3n2)c1,"inconclusive: 2.51 µM [activator, partial curve, poor fit]"
5,Cc1ccc(S(=O)(=O)Nc2nc(C)c(C)s2)cc1,"inconclusive: 3.16 µM [activator, single point]"
6,COC(=O)c1ccc(N=Nc2c(C)[nH]n(-c3ccccc3)c2=O)cc1,"inconclusive: 10 µM [activator, partial curve, poor fit]"
7,Cc1cc(O)ccc1NC1=CC(=O)CC(C)(C)C1,"inconclusive: 3.55 µM [activator, partial curve, poor fit]"
8,Cc1cc(C)c(NC(=S)N(CCCN2CCN(C)CC2)Cc2cccs2)c(C)c1,"inconclusive: 5.01 µM [activator, partial curve, poor fit]"
9,Cc1ccc(C(=O)OCCN(C)Cc2ccccc2)cc1,"inconclusive: 28.2 µM [activator, partial curve, poor fit]"
10,COC(=O)Cc1ccc(NC(=S)N2CCN(c3ccccn3)CC2)cc1,"inconclusive: 15.8 µM [activator, single point]"
11,Cc1c(NC(=O)OCCNC(=O)COc2ccc(Cl)cc2Cl)sc(=S)n1C,"inconclusive: 5.01 µM [activator, single point]"
12,COC(=O)c1scc(C)c1NC(=O)c1ccc(Cl)cc1,"inconclusive: 31.6 µM [activator, single point]"
13,CSc1nc2ccc(NC(=O)c3cccs3)cc2s1,"inconclusive: 2.82 µM [activator, partial curve, poor fit]"
14,Cc1ccc(N(C(=O)c2sc(C)nc2C)C(C(=O)NCc2ccco2)c2ccccc2)cc1 (stereo unspecified),"inconclusive: 10 µM [activator, single point]"
15,COc1ccc(NC2CCCN(C(=O)CCc3cccc(Cl)c3)C2)cc1 (stereo unspecified),"inconclusive: 5.01 µM [activator, single point]"
16,COc1cc([N+](=O)[O-])cc(/C=N/NC(=O)Cn2nc(C)cc2C)c1O,inactive
17,CCOc1ccc(N2CC(C(=O)NC3=NCCS3)CC2=O)cc1 (stereo unspecified),"inconclusive: 20 µM [activator, single point]"
18,N#C/C(=C\c1cc([N+](=O)[O-])ccc1Cl)C(N)=O,inactive
19,CCCc1nc2ccccc2c(C(=O)OCC(=O)Nc2ccc(S(=O)(=O)N3CCOCC3)cc2)c1CC,inactive
20,CN(C(=O)COC(=O)c1cc(S(=O)(=O)N2CCCCC2)ccc1Cl)c1ccccc1,"inconclusive: 11.2 µM [activator, partial curve, poor fit]"
21,CC(/C=N/NC(=O)c1ccncc1)=C\c1ccco1,"inconclusive: 5.01 µM [activator, single point]"
22,COc1ccc(Nc2nccc(-c3cccc(N)c3)n2)cc1,"inconclusive: 5.01 µM [activator, single point]"
23,CC1=CC(c2ccccc2)n2nc(N3C(=O)C4CC=CCC4C3=O)nc2N1 (stereo unspecified),inactive
